PubChem BioAssay AID686937 | Drosophila RNAi Screening Center – 2013
Purpose: 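Knock-downs that reduce output of a secreted reporter enzyme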 (primary screen). System: Drosophila S2 cells expressing secreted horseradish peroxidase. Reagent: long dsRNA against Drosophila genes. Timing: about 5.5 days (5 days dsRNA, then 12 h reporter induction). Treatment: reporter expression induced after 5 days of dsRNA, read 12 h later; inducer not stated. Measurement: 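After 5 days of dsRNA and 12 h of reporter induction, medium peroxidase read by chemiluminescence and scored as per-plate z-score; higher values mean more reporter released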. Direction: z-score: higher = more reporter secreted into medium.
In all, the deposit lists about 23,000 reagents; below is a random part of those with a known target gene and a result. 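Reduced-secretion tags in replicate 1 do not always agree with the z-scores; no criterion for assigning the tags was given.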 The numbers tell different reagents against one gene apart. A plus sign joins genes that one reagent is predicted to hit. Further read-outs or replicates are left out here. Not stated in the record: the amount of reagent.

z-score, replicate 1, by predicted target and reagent
Cul1 (GeneID 35742): #1 0.57
MetRS (GeneID 37177): #1 0.14
CG13707 (GeneID 38583): #1 0.23
Obp51a (GeneID 246666): #1 -0.27
CG1572 (GeneID 32098): #1 -0.32
lola (GeneID 44548): #1 -3.72; #2 0.65; #3 -0.01; #4 -1.62; #5 0.73; #6 0.07; #7 0.1; #8 0.6; #9 -8.62; #10 -0.81; #11 0.43; #12 0.4
CG10324 (GeneID 42028): #1 -2.4
Smug (GeneID 42078): #1 -0.03
Pstk + CG14210 + Tim9b: #1 -2.77
Cdc27 (GeneID 38798): #1 -5.9
CG32855 (GeneID 318250): #1 0.41
Sik3 (GeneID 37152): #1 0.22; #2 -1.71
CG31313 (GeneID 318677): #1 -1.16
fs(1)Ya (GeneID 31263): #1 0.19
Pex1 (GeneID 45460): #1 0.46
CG42518 + MED9: #1 0.16
Cyt-b5 (GeneID 35688): #1 0.36
Ltn1 (GeneID 40127): #1 0.23; #2 0.21
ato (GeneID 40975): #1 -0.09
CG6511 (GeneID 38997): #1 0.11
CG10864 (GeneID 42222): #1 0.29
Gr59e (GeneID 37725): #1 0.07
sws (GeneID 31716): #1 0.55
CG1924 (GeneID 32180): #1 0.32
NHP2 (GeneID 44005): #1 0.11
Spn43Aa (GeneID 45041): #1 0.19
CG7201 (GeneID 38929): #1 0.31
Sr-CI (GeneID 33621): #1 0.72
Drsl5 (GeneID 38409): #1 0.06
wupA (GeneID 32794): #1 0.55; #2 -0.13
CG11583 (GeneID 326206): #1 -0.2
L (GeneID 36609): #1 -0.12; #2 0.18
CG14006 (GeneID 33802): #1 0.23
Ythdc1 (GeneID 38420): #1 0.74
CG6296 (GeneID 43246): #1 0.24
CG13984 (GeneID 33879): #1 0.29

10 entries from above, sorted by “z-score, replicate 1”, lowest first:
predicted target	reagent no.	z-score, replicate 1
lola (GeneID 44548)	1	-3.72
lola (GeneID 44548)	4	-1.62
CG1572 (GeneID 32098)	1	-0.32
Obp51a (GeneID 246666)	1	-0.27
lola (GeneID 44548)	3	-0.01
lola (GeneID 44548)	6	0.07
lola (GeneID 44548)	7	0.1
CG13707 (GeneID 38583)	1	0.23
lola (GeneID 44548)	2	0.65
lola (GeneID 44548)	5	0.73

Continued.
z-score, replicate 1, by predicted target and reagent
Cyp6t1 (GeneID 33127): #1 0.62
dao (GeneID 34891): #1 0.08
Psn (GeneID 40260): #1 0.22
GstD2 (GeneID 48335): #1 0.18
Ube3a (GeneID 39266): #1 0.03
Rac1 (GeneID 38146): #1 -0.48
CG7943 (GeneID 43574): #1 0.3
Octalpha2R (GeneID 42258): #1 0.14; #2 0.29
Syn1 (GeneID 40424): #1 0.16; #2 0.33
CG30010 (GeneID 246389): #1 -0.16
Lsp1gamma (GeneID 38015): #1 0.08
MRP (GeneID 34686): #1 0.27
Ube4B (GeneID 34699): #1 0.12
Hel89B (GeneID 41943): #1 0.33; #2 1.63
RASSF8 (GeneID 43096): #1 0.07
CG13955 (GeneID 35968): #1 0.02
tRNA:Leu-CAA-2-3 (GeneID 3772601): #1 0.49
Inx3 (GeneID 44266): #1 0.5
CG3544 (GeneID 33252): #1 0.1
ppk28 (GeneID 32671): #1 -0.83
bin3 (GeneID 35552): #1 0.68
robl22E (GeneID 33412): #1 0.04
peb (GeneID 31391): #1 0.1
CG14667 (GeneID 40643): #1 0.27
Cpr92A (GeneID 42333): #1 0.13
ea (GeneID 41858): #1 0.41
mod(mdg4) + pre-mod(mdg4)-U: #1 0.08
CG17048 (GeneID 36479): #1 0.35
rho-5 (GeneID 2768944): #1 0.14
CG17571 (GeneID 35409): #1 0.32; #2 0.04
msk (GeneID 44747): #1 -2.37
Cyp4g1 (GeneID 30986): #1 0.17
CG12320 (GeneID 42189): #1 0.35
wnd (GeneID 40143): #1 0.04; #2 0.45; #3 0.11
Tsf3 (GeneID 36800): #1 0.36
CG13833 (GeneID 42718): #1 0.36
CG2256 (GeneID 31727): #1 0.26
CG1909 (GeneID 43800): #1 -0.28
EndoA (GeneID 42265): #1 0.43
ash2 (GeneID 42936): #1 0.29
CG34277 + CG31542: #1 1.58
CG32187 (GeneID 39980): #1 0.18
LSm7 (GeneID 35003): #1 -0.12
CG31360 (GeneID 318698): #1 0.24
CG2614 (GeneID 35326): #1 0.64
CG6013 (GeneID 42286): #1 -0.03
Miro (GeneID 42845): #1 0.54
